Reference: PMC8561924
Results are given in words; binding and its absence hold for the method and conditions named. Binding seen in cells or lysates may run through a third protein. Some entries that bind do so weakly or less than the wild type.

By UniProt entry, the sequences of proteins in these tests, tags left out.
UniProt Q03135: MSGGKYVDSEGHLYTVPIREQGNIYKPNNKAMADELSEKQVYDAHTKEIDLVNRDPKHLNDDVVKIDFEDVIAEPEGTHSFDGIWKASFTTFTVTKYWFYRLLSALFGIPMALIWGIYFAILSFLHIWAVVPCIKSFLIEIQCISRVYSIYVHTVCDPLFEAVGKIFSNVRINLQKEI

How the values were obtained:
[1] = biological target: T1, Phospholipase C delta 1 (PLCD1), endogenous (human (endogenous in H1703, H358, 293T)) (UniProt P51178); test: co-IP; Caveolin-1 IP from H1703 cells transfected with GFP or GFP-DLC1 848–1091; Fig. 2F
T1 sequence: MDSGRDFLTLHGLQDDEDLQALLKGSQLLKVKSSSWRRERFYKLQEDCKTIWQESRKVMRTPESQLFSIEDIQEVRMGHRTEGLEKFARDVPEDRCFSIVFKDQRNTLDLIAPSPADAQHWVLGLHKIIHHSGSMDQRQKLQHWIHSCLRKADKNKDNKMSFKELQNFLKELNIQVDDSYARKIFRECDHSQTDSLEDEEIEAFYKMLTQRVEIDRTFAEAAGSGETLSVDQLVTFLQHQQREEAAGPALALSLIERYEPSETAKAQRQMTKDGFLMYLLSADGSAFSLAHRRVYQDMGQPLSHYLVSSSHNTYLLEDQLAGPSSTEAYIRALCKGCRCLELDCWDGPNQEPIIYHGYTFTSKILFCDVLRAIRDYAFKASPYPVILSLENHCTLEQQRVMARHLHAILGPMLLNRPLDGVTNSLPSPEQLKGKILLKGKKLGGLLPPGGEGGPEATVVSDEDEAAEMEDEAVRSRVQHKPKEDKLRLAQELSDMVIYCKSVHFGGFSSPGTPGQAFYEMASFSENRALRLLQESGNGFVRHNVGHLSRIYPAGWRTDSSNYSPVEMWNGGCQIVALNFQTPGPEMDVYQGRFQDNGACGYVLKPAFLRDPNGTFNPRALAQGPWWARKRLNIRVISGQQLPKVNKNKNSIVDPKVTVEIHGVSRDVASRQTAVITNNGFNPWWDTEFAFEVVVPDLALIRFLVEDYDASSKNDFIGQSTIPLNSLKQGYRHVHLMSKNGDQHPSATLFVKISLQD

[2] = biological target: T1, Phospholipase C delta 1 (PLCD1), endogenous (human (endogenous in H1703, H358, 293T)); test: co-IP; endogenous PLCD1, DLC1 and Caveolin-1 in H1703 cell lysate (1X RIPA buffer); Fig. 1A
[3] = biological target: T1, Phospholipase C delta 1 (PLCD1), endogenous (human (endogenous in H1703, H358, 293T)); test: co-IP; PLCD1 IP from H358 cells transfected with empty vector or a plasmid encoding DLC1 848–1091; Fig. 2E
[4] = biological target: T1, Phospholipase C delta 1 (PLCD1), endogenous (human (endogenous in H1703, H358, 293T)); test: co-IP; IP with PLCD1 or Caveolin-1 antibodies from H358 (DLC1-negative) cells transfected with empty vector or pCDNA DLC1; Fig. 2D

Measured: binding

Caveolin-1, endogenous (from UniProt Q03135 1-178)
binds: all assays above
